Test results taken from PMC6219760.

Target: VC-Venus fragment alone (C-terminal fragment of split Venus)
Experiment: split reporter; BiFC with split Venus (VN, VC); mRNAs (200 pg each) injected into one-cell zebrafish embryos, fluorescence imaged at 3 hpf

binding: no binding
B1: Vasa-VN (Vasa fused to the N-terminal fragment of split Venus) (protein, UniProt O42107 1-716)
chain: MDDWEEDQSPVVSCSSGFGLGSNGSDGGFKSFYTGGAGNDKSNSEGTEGSSWKMTGDSFRGRGGRGGSRGGRGGFSGFKSEIDENGSDGGWNGGESRGRGRGGFRGGFRSGSRDENDENRNDDGWKGGESRGRGRGGFGGSFRGGFRDGGNEDTGRRGFGRENNENGNDEGGEGRGRGRGGFRGGFRDGGGDESGKRGFGRGGFRGRNEEVFSKVTTADKLDQEGSENAGPKVVYVPPPPPEEESSIFSHYATGINFDKYDDILVDVSGSNPPKAIMTFEEAGLCDSLSKNVSKSGYVKPTPVQKHGIPIISAGRDLMACAQTGSGKTAAFLLPILQRFMTDGVAASKFSEIQEPEAIIVAPTRELINQIYLEARKFAYGTCVRPVVVYGGINTGYTIREVLKGCNVLCATPGRLHDLIGRGKIGLSKVRYLVLDEADRMLDMGFEPEMRKLVASPGMPSKEERQTLMFSATYPEDIQRMAADFLKVDYIFLAVGVVGGACSDVEQTVVQVDQYSKRDQLLELLRATGNERTMVFVETKRSADFIATFLCQEKISTTSIHGDREQREREKALSDFRLGHCPVLVATSVAARGLDIEQVQHVVNFDMPSSIDEYVHRIGRTGRCGNTGRAVSFFNPESDTPLARSLVKVLSGAQQVVPKWLEEVAFSAHGTTGFNPRGKVFASTDSRKGGSFKSDEPPPSQTSAPSAAAAADDEEWE

No constants are given. Whether binding was seen depends on the method and setting. In cells and extracts the contact can be indirect. Tags and fused reporters may be left off the sequences shown.
